Source: the OPERA property sets (Mansouri et al. 2018)

NCCCC(N)C(=O)O (stereo unspecified)
logP: -4.22
